Measurements published in the supplement of paper PMC6411743.
± gives the standard deviation of the averaged measurements. The list shows a part of the results, in another mix than the full data.

By UniProt entry, the sequences of proteins in these tests, tags left out. Where a name states a change or a piece, a line headed by the entry shows the natural chain unless it says otherwise.
UniProt Q8IWT6: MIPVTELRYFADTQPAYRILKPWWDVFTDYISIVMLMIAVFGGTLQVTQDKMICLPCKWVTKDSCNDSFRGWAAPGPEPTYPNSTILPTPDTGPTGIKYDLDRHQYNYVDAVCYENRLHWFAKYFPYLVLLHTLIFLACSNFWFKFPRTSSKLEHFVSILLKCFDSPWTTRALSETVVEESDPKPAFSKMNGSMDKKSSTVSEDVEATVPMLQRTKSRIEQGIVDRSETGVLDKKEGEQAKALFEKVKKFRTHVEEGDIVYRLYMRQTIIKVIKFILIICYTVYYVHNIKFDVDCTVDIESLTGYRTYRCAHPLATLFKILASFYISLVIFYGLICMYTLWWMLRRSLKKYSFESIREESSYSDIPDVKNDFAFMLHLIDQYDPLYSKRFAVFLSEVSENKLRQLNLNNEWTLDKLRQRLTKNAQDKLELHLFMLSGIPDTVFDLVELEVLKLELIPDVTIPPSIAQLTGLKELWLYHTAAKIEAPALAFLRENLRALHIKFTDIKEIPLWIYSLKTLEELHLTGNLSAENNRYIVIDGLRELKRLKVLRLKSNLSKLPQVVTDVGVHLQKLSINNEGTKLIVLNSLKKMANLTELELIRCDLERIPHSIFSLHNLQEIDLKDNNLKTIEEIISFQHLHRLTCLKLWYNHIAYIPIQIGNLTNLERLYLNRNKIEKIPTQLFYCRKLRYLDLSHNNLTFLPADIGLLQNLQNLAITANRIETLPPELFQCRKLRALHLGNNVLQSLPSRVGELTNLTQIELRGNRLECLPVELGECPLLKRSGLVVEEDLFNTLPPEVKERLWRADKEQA
UniProt Q8IW45: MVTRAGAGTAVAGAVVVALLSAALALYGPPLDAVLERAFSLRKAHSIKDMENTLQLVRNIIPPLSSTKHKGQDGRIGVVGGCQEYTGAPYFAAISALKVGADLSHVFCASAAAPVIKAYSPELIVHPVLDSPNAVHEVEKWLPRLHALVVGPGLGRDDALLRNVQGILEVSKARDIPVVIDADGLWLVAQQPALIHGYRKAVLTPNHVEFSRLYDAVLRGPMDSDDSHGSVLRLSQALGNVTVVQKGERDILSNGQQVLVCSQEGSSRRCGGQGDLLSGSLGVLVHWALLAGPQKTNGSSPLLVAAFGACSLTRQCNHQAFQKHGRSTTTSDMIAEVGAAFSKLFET
UniProt Q8N584: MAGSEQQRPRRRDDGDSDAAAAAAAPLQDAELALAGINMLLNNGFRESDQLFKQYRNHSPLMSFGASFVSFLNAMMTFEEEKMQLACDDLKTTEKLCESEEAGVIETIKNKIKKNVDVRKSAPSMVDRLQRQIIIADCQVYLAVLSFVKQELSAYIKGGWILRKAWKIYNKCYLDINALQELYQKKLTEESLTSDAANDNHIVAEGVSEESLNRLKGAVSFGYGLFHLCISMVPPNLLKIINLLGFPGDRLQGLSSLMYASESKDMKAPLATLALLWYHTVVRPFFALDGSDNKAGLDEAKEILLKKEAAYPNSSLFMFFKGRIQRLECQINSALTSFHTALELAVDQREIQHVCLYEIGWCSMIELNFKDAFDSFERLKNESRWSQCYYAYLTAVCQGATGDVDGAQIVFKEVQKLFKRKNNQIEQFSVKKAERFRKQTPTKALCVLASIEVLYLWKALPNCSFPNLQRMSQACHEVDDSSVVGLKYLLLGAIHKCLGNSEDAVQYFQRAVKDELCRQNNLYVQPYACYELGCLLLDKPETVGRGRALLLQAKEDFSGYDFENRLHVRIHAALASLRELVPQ
UniProt Q8N5K1: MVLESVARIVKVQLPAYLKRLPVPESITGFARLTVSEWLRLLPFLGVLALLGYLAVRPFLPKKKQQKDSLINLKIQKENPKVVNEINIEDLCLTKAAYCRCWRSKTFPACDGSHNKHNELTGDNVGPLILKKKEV
UniProt Q8IXQ5, whole entry: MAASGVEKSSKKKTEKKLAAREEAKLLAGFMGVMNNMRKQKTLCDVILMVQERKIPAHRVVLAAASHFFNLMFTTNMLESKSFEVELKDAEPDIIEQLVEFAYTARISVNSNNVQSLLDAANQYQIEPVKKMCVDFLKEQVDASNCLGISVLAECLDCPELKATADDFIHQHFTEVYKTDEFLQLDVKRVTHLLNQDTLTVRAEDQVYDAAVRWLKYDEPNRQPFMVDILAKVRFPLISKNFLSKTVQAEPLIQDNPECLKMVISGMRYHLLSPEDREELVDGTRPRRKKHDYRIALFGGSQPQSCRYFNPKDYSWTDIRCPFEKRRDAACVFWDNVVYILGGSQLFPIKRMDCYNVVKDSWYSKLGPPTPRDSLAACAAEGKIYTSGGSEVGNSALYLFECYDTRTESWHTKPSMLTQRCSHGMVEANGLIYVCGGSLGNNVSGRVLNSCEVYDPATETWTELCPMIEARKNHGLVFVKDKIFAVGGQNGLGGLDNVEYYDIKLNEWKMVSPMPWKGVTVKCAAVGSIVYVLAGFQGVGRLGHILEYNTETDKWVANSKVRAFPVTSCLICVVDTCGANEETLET
UniProt Q8N9B5, whole entry: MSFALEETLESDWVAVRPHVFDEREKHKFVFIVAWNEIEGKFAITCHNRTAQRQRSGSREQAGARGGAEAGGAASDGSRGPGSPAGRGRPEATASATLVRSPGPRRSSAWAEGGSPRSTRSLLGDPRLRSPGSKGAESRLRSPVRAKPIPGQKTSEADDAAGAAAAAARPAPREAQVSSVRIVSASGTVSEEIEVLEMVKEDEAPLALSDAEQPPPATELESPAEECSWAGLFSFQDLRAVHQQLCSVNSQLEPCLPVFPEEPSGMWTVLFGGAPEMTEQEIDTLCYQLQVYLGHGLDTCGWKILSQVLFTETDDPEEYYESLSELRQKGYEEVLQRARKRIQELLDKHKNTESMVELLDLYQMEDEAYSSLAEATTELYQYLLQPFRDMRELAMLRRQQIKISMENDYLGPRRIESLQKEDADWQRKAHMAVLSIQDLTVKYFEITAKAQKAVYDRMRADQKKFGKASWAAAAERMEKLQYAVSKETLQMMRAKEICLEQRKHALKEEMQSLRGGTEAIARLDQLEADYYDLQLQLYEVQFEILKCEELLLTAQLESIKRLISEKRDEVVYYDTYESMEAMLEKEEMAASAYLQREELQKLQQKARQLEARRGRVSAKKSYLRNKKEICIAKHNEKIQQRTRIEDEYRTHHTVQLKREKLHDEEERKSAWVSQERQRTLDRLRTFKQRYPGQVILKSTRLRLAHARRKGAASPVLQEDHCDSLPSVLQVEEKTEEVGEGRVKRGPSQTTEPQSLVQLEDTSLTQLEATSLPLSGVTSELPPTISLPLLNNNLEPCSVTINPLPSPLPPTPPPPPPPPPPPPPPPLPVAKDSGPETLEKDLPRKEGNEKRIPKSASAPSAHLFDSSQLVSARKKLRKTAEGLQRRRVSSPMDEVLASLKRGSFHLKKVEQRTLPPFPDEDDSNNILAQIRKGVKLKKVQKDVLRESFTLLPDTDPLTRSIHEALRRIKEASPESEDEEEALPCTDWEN
UniProt Q8TAP6: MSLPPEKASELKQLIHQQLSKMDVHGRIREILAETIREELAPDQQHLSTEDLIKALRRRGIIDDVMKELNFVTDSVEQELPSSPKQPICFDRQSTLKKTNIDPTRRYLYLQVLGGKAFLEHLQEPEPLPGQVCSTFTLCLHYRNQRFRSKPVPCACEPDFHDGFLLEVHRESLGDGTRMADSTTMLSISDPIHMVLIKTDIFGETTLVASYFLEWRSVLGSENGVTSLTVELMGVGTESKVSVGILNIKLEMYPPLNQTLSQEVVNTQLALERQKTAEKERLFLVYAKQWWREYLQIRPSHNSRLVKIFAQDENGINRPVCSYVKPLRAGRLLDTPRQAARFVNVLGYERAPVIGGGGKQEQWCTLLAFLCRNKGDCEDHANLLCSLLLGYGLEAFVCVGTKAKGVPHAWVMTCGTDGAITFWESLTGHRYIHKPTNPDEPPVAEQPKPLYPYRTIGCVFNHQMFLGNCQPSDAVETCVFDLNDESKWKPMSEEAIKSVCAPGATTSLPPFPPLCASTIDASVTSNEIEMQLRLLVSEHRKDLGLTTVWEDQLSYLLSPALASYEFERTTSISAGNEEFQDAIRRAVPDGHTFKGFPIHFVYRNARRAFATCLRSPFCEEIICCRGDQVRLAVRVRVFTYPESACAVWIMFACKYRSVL
UniProt Q8TAA9: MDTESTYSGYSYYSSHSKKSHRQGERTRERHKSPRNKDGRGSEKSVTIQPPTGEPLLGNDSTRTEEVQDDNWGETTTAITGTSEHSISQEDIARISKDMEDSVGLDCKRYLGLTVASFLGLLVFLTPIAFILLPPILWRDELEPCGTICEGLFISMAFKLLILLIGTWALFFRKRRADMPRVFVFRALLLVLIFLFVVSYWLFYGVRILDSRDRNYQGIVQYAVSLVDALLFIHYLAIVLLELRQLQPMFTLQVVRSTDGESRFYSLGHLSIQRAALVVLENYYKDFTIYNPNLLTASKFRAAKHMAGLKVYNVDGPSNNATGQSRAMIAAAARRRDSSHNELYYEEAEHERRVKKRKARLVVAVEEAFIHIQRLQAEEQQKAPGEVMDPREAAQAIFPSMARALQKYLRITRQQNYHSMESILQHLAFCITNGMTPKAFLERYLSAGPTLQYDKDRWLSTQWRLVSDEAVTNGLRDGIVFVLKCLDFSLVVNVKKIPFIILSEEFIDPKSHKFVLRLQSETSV
UniProt Q8N4Q0: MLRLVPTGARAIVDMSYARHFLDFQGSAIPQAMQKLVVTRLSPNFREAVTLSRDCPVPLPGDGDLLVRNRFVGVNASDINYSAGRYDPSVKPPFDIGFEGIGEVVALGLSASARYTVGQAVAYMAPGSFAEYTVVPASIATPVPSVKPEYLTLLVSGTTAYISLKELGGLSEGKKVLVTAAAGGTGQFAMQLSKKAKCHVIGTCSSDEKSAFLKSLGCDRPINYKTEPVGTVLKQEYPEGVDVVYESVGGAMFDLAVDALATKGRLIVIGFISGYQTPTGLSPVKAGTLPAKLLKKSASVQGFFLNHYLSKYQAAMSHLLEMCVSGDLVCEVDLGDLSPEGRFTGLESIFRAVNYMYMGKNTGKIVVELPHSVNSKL
UniProt Q8N1G2: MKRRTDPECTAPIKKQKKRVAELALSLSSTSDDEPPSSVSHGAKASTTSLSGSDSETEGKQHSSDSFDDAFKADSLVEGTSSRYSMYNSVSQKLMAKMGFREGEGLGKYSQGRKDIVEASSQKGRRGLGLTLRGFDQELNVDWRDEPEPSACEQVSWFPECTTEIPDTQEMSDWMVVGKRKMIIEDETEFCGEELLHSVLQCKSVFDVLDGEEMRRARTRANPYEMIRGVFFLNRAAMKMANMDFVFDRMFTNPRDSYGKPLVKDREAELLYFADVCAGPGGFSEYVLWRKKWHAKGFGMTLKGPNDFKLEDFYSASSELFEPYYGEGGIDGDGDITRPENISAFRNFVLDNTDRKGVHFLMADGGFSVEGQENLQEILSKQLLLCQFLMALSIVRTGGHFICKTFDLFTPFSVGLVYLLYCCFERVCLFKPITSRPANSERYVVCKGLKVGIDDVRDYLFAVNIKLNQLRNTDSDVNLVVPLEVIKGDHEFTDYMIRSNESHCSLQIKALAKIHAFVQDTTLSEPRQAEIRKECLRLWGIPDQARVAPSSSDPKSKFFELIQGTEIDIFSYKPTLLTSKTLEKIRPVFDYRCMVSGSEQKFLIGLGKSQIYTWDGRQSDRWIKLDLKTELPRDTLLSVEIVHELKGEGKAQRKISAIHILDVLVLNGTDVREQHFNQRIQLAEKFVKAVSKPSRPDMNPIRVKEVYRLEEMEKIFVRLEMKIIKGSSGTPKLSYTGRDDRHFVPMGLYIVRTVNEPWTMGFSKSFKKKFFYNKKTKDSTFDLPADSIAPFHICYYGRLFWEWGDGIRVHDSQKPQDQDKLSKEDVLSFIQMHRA
UniProt Q8IYS2: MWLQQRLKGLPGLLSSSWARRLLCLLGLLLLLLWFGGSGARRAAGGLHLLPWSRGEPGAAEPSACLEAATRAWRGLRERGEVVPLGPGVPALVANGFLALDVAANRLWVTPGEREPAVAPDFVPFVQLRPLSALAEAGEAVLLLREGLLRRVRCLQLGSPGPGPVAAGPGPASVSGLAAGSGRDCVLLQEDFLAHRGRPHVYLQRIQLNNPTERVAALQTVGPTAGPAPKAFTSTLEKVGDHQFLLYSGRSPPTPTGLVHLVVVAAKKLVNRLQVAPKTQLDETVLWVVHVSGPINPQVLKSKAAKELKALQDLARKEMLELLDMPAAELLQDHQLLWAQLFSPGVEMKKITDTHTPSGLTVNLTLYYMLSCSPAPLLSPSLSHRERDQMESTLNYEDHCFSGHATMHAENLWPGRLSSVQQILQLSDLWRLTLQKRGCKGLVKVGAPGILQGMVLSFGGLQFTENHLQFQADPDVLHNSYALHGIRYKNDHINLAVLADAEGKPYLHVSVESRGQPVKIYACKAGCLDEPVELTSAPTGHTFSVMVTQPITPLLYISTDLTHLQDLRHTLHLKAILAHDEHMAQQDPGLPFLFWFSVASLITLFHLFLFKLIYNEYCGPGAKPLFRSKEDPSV

Compound: Nc1ncnc2c1ncn2[C@@H]1O[C@H](COP(=O)(O)OP(=O)(O)OP(=O)(O)O)[C@@H](O)[C@H]1O [adenosine triphosphate]
Assay: NP40-soluble protein abundance relative to vehicle (solubility fold change) (ratio); higher = more soluble protein in presence of ATP
Procedure, shortened: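 In three independent experiments, Jurkat crude lysate made by Dounce homogenisation was treated for 10 min at room temperature and then 3 min at 37 °C with eight concentrations ranging from 0.1 to 10 mM. It was then solubilised with 0.8% NP40 plus benzonase for 60 min at 4 °C and ultracentrifuged. The supernatant was TMT-labelled for LC-MS/MS, and each value is the fold change against the detergent-processed vehicle for the same replicate, using vsn-normalised intensities.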

Target	NP40-soluble protein abundance (concentration: 1mM)	NP40-soluble protein abundance (concentration: 2mM)	NP40-soluble protein abundance (concentration: 4mM)	NP40-soluble protein abundance (concentration: 6mM)	NP40-soluble protein abundance (concentration: 8mM)	NP40-soluble protein abundance (concentration: 10mM)
UniProt Q8NHH9 and related entries	1.07 ± 0.055	1.03 ± 0.071	1.04 ± 0.069	1.04 ± 0.022	1.02 ± 0.027	0.988 ± 0.063
UniProt Q8N5Y2 and related entries	1.34 ± 0.12	1.38 ± 0.19	1.49 ± 0.15	1.64 ± 0.33	1.52 ± 0.19	1.56 ± 0.2
UniProt Q8IZE3-2	1 ± 0.019	0.951 ± 0.011	1.03 ± 0.069	1.01 ± 0.14	1.09 ± 0.13	0.989 ± 0.041
LRRC8A (UniProt Q8IWT6)	0.973 ± 0.026	0.961 ± 0.026	1.05 ± 0.074	1.03 ± 0.09	1.08 ± 0.013	1.1 ± 0.077
UniProt Q8ND56 and related entries	0.964 ± 0.079	0.96 ± 0.034	0.952 ± 0.036	1.01 ± 0.051	0.964 ± 0.035	0.967 ± 0.025
UniProt Q8NCW5	0.994 ± 0.08	0.996 ± 0.048	0.989 ± 0.037	0.954 ± 0.01	1 ± 0.016	0.915 ± 0.093
UniProt Q8N9N2-2|Q8N9N2	1.08 ± 0.22	0.991 ± 0.09	0.976 ± 0.072	0.966 ± 0.15	1.07 ± 0.073	1.06 ± 0.075
GDAP1 (UniProt Q8TB36)	0.964 ± 0.04	0.966 ± 0.065	0.958 ± 0.037	0.987 ± 0.052	0.968 ± 0.065	0.962 ± 0.06
GALNT12 (UniProt Q8IXK2)	1.11 ± 0.084	1.05 ± 0.045	1.07 ± 0.074	1.02 ± 0.098	1.09 ± 0.054	1.04 ± 0.065
PDZD8 (UniProt Q8NEN9)	0.986 ± 0.036	0.943 ± 0.029	0.992 ± 0.041	1.02 ± 0.027	0.941 ± 0.038	0.967 ± 0.061
UniProt Q8IZP0-3|Q8IZP0-5|Q8IZP0-9|A0A0A0MRT6|B6VEX4 and related entries	0.933 ± 0.092	0.913 ± 0.069	0.898 ± 0.094	0.911 ± 0.098	0.888 ± 0.057	0.835 ± 0.069
USP32 (UniProt Q8NFA0)	1.02 ± 0.096	0.994 ± 0.11	0.953 ± 0.045	0.965 ± 0.12	0.96 ± 0.086	0.978 ± 0.11
UniProt Q8IWY9 and related entries	0.974 ± 0.057	0.991 ± 0.044	0.998 ± 0.036	0.93 ± 0.021	0.961 ± 0.037	0.965 ± 0.044
PELP1 (UniProt Q8IZL8)	1.03 ± 0.11	0.975 ± 0.027	1.07 ± 0.079	1.02 ± 0.069	0.998 ± 0.04	1.06 ± 0.038
UniProt Q8N6T7 and related entries	0.974 ± 0.053	0.954 ± 0.044	0.992 ± 0.047	0.976 ± 0.09	1.02 ± 0.066	0.98 ± 0.056
UniProt Q8IW41 and related entries	1.06 ± 0.087	1.07 ± 0.089	1.03 ± 0.051	0.909 ± 0.097	0.998 ± 0.022	1.03 ± 0.061
SRBD1 (UniProt Q8N5C6)	1.17 ± 0.19	1.2 ± 0.017	1.29 ± 0.044	1.35 ± 0.073	1.4 ± 0.09	1.45 ± 0.057
RDH13 (UniProt Q8NBN7)	1 ± 0.033	1.006 ± 0.0082	1.02 ± 0.028	1.04 ± 0.029	1.02 ± 0.055	1.05 ± 0.021
RHOT2 (UniProt Q8IXI1)	1.09 ± 0.041	1.05 ± 0.064	1.06 ± 0.11	1.04 ± 0.062	1.04 ± 0.067	1.04 ± 0.068
UniProt Q8IY63 and related entries	0.979 ± 0.054	1.01 ± 0.06	1.06 ± 0.069	1.09 ± 0.049	1.05 ± 0.024	1.07 ± 0.15

Target	NP40-soluble protein abundance (concentration: 1mM)	NP40-soluble protein abundance (concentration: 2mM)	NP40-soluble protein abundance (concentration: 4mM)	NP40-soluble protein abundance (concentration: 6mM)	NP40-soluble protein abundance (concentration: 8mM)	NP40-soluble protein abundance (concentration: 10mM)
UniProt Q8IW45	1 ± 0.019	0.973 ± 0.026	1.01 ± 0.022	1.02 ± 0.031	1.01 ± 0.061	1.02 ± 0.046
TTC39C (UniProt Q8N584)	1.04 ± 0.024	1.04 ± 0.022	1.01 ± 0.054	1.04 ± 0.076	1.03 ± 0.062	1 ± 0.055
CKAP2L (UniProt Q8IYA6)	1 ± 0.062	1.08 ± 0.044	1.08 ± 0.043	1.11 ± 0.086	1.11 ± 0.013	1.202 ± 0.0031
TMEM102 (UniProt Q8N9M5)	0.982 ± 0.14	1.06 ± 0.2	0.99 ± 0.079	1.07 ± 0.082	0.958 ± 0.012	0.959 ± 0.013
CISD2 (UniProt Q8N5K1)	1.05 ± 0.023	0.991 ± 0.03	0.981 ± 0.015	0.986 ± 0.055	0.997 ± 0.038	0.969 ± 0.045
UniProt Q8N5U6 and related entries	1.1 ± 0.077	1.16 ± 0.059	1.24 ± 0.02	1.28 ± 0.063	1.27 ± 0.076	1.33 ± 0.061
UniProt Q8N5N7 and related entries	1.09 ± 0.23	0.96 ± 0.16	1.03 ± 0.24	1 ± 0.47	1.04 ± 0.33	0.889 ± 0.23
UniProt Q8IXQ5 and related entries	1.02 ± 0.057	1.04 ± 0.067	1.07 ± 0.07	1.05 ± 0.094	1.13 ± 0.12	1.118 ± 0.011
UniProt Q8N9B5 and related entries	0.97 ± 0.045	1.05 ± 0.095	1.01 ± 0.055	1.02 ± 0.048	1.02 ± 0.046	0.998 ± 0.028
FAM76A (UniProt Q8TAV0)	0.986 ± 0.061	0.9908 ± 0.0045	1.01 ± 0.077	1.03 ± 0.069	1.02 ± 0.064	1.07 ± 0.078
TOR1AIP2 (UniProt Q8NFQ8)	0.929 ± 0.051	0.967 ± 0.026	0.925 ± 0.035	0.933 ± 0.077	0.9 ± 0.012	0.869 ± 0.041
UniProt Q8IYH5 and related entries	1.04 ± 0.14	0.989 ± 0.14	1.01 ± 0.13	1.07 ± 0.21	0.968 ± 0.14	1.04 ± 0.16
UniProt Q8N490 and related entries	0.949 ± 0.044	0.982 ± 0.1	0.962 ± 0.098	0.998 ± 0.077	0.988 ± 0.12	1.01 ± 0.17
MRPL41 (UniProt Q8IXM3)	0.99 ± 0.21	0.837 ± 0.31	0.773 ± 0.21	0.743 ± 0.4	0.698 ± 0.27	0.695 ± 0.28
UniProt Q8N983-4|B1AL05 and related entries	1.06 ± 0.25	0.93 ± 0.26	0.877 ± 0.18	0.896 ± 0.36	0.945 ± 0.31	0.748 ± 0.21
Q8N655 (UniProt Q96JN0)	1.11 ± 0.12	1.15 ± 0.21	1.28 ± 0.11	1.24 ± 0.23	1.27 ± 0.22	1.36 ± 0.24
UniProt Q8N5Z0 and related entries	1.15 ± 0.28	1.06 ± 0.2	1.02 ± 0.076	0.978 ± 0.14	0.971 ± 0.11	1.02 ± 0.098
RPUSD2 (UniProt Q8IZ73)	1.01 ± 0.011	1.03 ± 0.028	1.07 ± 0.014	1.02 ± 0.032	1 ± 0.018	1.01 ± 0.031
CEP76 (UniProt Q8TAP6)	1 ± 0.064	1.01 ± 0.048	1.06 ± 0.03	1 ± 0.057	1.03 ± 0.027	1.04 ± 0.046
ALDH16A1 (UniProt Q8IZ83)	1.03 ± 0.069	0.993 ± 0.021	0.973 ± 0.038	0.928 ± 0.065	0.998 ± 0.09	1 ± 0.081

Target	NP40-soluble protein abundance (concentration: 1mM)	NP40-soluble protein abundance (concentration: 2mM)	NP40-soluble protein abundance (concentration: 4mM)	NP40-soluble protein abundance (concentration: 6mM)	NP40-soluble protein abundance (concentration: 8mM)	NP40-soluble protein abundance (concentration: 10mM)
UniProt Q8N9R8 and related entries	1.02 ± 0.11	1.06 ± 0.11	1.11 ± 0.056	0.98 ± 0.096	1.06 ± 0.035	1.04 ± 0.048
UniProt Q8N3U4 and related entries	1.08 ± 0.15	1.04 ± 0.11	1.01 ± 0.068	0.928 ± 0.14	1.06 ± 0.063	1.02 ± 0.086
REXO1 (UniProt Q8N1G1)	1.08 ± 0.06	1.19 ± 0.05	1.18 ± 0.052	1.19 ± 0.055	1.17 ± 0.034	1.26 ± 0.14
UniProt Q8TAA9 and related entries	1.1 ± 0.17	1.1 ± 0.2	1.1 ± 0.24	1.11 ± 0.29	1.07 ± 0.15	1.27 ± 0.18
KBTBD8 (UniProt Q8NFY9)	1.04 ± 0.1	1.07 ± 0.068	1.06 ± 0.12	0.996 ± 0.077	1.09 ± 0.06	1.07 ± 0.1
ZADH2 (UniProt Q8N4Q0)	0.997 ± 0.026	0.994 ± 0.028	0.964 ± 0.026	0.959 ± 0.065	0.939 ± 0.017	0.965 ± 0.038
CADM4 (UniProt Q8NFZ8)	1.15 ± 0.11	1.13 ± 0.033	1.2 ± 0.045	1.22 ± 0.12	1.1 ± 0.071	1.12 ± 0.21
GIMAP7 (UniProt Q8NHV1)	0.952 ± 0.036	0.921 ± 0.074	0.92 ± 0.018	0.95 ± 0.021	0.933 ± 0.056	0.902 ± 0.023
WDR48 (UniProt Q8TAF3)	1.06 ± 0.078	1.03 ± 0.067	1.02 ± 0.047	1.01 ± 0.064	1.07 ± 0.025	1.08 ± 0.051
UniProt Q8TAA3-5|Q8TAA3	0.921 ± 0.07	0.948 ± 0.041	0.968 ± 0.039	0.931 ± 0.0098	0.878 ± 0.025	0.933 ± 0.062
UniProt Q8N1G2	1.03 ± 0.092	1.02 ± 0.057	1.02 ± 0.038	0.975 ± 0.089	1.04 ± 0.033	1.02 ± 0.033
PCYOX1L (UniProt Q8NBM8)	0.95 ± 0.05	0.978 ± 0.076	0.972 ± 0.046	0.928 ± 0.078	0.926 ± 0.047	0.976 ± 0.07
UniProt Q8NBJ5	0.987 ± 0.06	0.957 ± 0.036	0.958 ± 0.035	0.943 ± 0.058	0.96 ± 0.039	0.943 ± 0.025
UniProt Q8IYS2 and related entries	1.01 ± 0.078	0.997 ± 0.061	0.996 ± 0.064	0.97 ± 0.034	1.02 ± 0.073	1.04 ± 0.067
UniProt Q8IZC7 and related entries	0.981 ± 0.18	0.991 ± 0.21	0.858 ± 0.27	0.862 ± 0.24	0.895 ± 0.13	0.856 ± 0.17
UniProt Q8TAT6 and related entries	0.976 ± 0.041	0.9832 ± 0.0064	0.965 ± 0.022	0.952 ± 0.054	0.966 ± 0.038	0.963 ± 0.013
DTWD1 (UniProt Q8N5C7)	0.998 ± 0.069	0.945 ± 0.063	0.955 ± 0.062	0.941 ± 0.12	0.991 ± 0.033	0.99 ± 0.063
UniProt Q8IZH2 and related entries	1.05 ± 0.046	1.04 ± 0.03	1.07 ± 0.052	1.082 ± 0.0035	1.12 ± 0.049	1.106 ± 0.011
C12orf29 (UniProt Q8N999)	1.03 ± 0.07	1.01 ± 0.07	1.02 ± 0.048	1 ± 0.014	1.03 ± 0.11	1.04 ± 0.072
CLIP4 (UniProt Q8N3C7)	1.19 ± 0.031	1.22 ± 0.14	1.35 ± 0.12	1.27 ± 0.091	1.31 ± 0.13	1.32 ± 0.14

Shown as labelled records: entries from further up.
UniProt Q8TAA3-5|Q8TAA3
  NP40-soluble protein abundance (concentration: 1mM): 0.921 ± 0.07
  NP40-soluble protein abundance (concentration: 2mM): 0.948 ± 0.041
  NP40-soluble protein abundance (concentration: 4mM): 0.968 ± 0.039
  NP40-soluble protein abundance (concentration: 6mM): 0.931 ± 0.0098
  NP40-soluble protein abundance (concentration: 8mM): 0.878 ± 0.025
  NP40-soluble protein abundance (concentration: 10mM): 0.933 ± 0.062
UniProt Q8N1G2
  NP40-soluble protein abundance (concentration: 1mM): 1.03 ± 0.092
  NP40-soluble protein abundance (concentration: 2mM): 1.02 ± 0.057
  NP40-soluble protein abundance (concentration: 4mM): 1.02 ± 0.038
  NP40-soluble protein abundance (concentration: 6mM): 0.975 ± 0.089
  NP40-soluble protein abundance (concentration: 8mM): 1.04 ± 0.033
  NP40-soluble protein abundance (concentration: 10mM): 1.02 ± 0.033
